Values from PubChem BioAssay AID493246 (Drosophila RNAi Screening Center, 2011).
In all, the deposit lists about 21,000 reagents; this is a random part of those with a known target gene and a result. Of all reagents, 429 (2%) got an active call. 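Values are raw and not normalised between plates; calls rest on per-plate z-scores that were not deposited.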 A plus sign joins genes that one reagent is predicted to hit. Not given: the amount of reagent, the time to read-out.

Assay: 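Identify essential fly genes by loss of cell viability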 (primary screen)
System: Drosophila Kc and S2R+ cells
Reagent: long dsRNA against Drosophila genes
Measured: 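Cell number per well after knock-down, printed as raw plate values; calls were based on per-plate z-scores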
Scale: Kc cell number and S2R+ cell number: higher = more cells remaining
Rule for the call: 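Counted as a hit if cell number falls by a z-score of at least 3 within its plate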

| Gene | dsRNA | Kc cell number, rep 1 | Kc cell number, rep 2 | S2R+ cell number, rep 1 | S2R+ cell number, rep 2 | Outcome |
| --- | --- | --- | --- | --- | --- | --- |
| dod (GeneID 33111) | DRSC20577 | 1.56e6 | 1.51e6 | 1.04e6 | 1.17e6 | inactive |
| Kpc1 (GeneID 41826) | DRSC16107 | 1.87e6 | 2.01e6 | 1.47e6 | 1.58e6 | inactive |
| CG10898 (GeneID 41384) | DRSC14279 | 1.50e6 | 1.54e6 | 1.30e6 | 1.31e6 | inactive |
| CG31681 (GeneID 318882) | DRSC00107 | 1.61e6 | 1.61e6 | 1.00e6 | 1.18e6 | inactive |
| Lim3 (GeneID 35184) | DRSC02475 | 1.73e6 | 1.78e6 | 1.26e6 | 3.05e5 | inactive |
| Lim3 (GeneID 35184) | DRSC03363 | 1.30e6 | 1.46e6 | 8.85e5 | 2.90e5 | inactive |
| Klp68D (GeneID 39332) | DRSC11206 | 1.32e6 | 1.39e6 | 1.24e6 | 1.22e6 | inactive |
| mwh (GeneID 38131) | DRSC08382 | 1.64e6 | 1.56e6 | 1.04e6 | 1.57e6 | inactive |
| Capr (GeneID 59172) | DRSC10346 | 1.30e6 | 1.39e6 | 1.31e6 | 1.41e6 | inactive |
| lectin-30A (GeneID 53541) | DRSC02560 | 1.52e6 | 1.52e6 | 1.12e6 | 1.23e6 | inactive |
| D19A (GeneID 38718) | DRSC11133 | 1.31e6 | 1.42e6 | 7.04e5 | 7.96e5 | inactive |
| l(3)mbt (GeneID 43288) | DRSC16983 | 4.76e5 | – | 7.93e5 | – | inactive |
| CG13230 (GeneID 50237) | DRSC06350 | 1.55e6 | 1.54e6 | 1.18e6 | 1.33e6 | inactive |
| CG31268 (GeneID 318652) | DRSC13203 | 1.66e6 | 1.88e6 | 1.14e6 | 1.34e6 | inactive |
| Cpr92A (GeneID 42333) | DRSC16000 | 1.38e6 | 1.43e6 | 1.25e6 | 1.36e6 | inactive |
| gig (GeneID 40201) | DRSC11351 | 1.54e6 | 1.66e6 | 1.19e6 | 1.27e6 | inactive |
| snRNP-U1-C (GeneID 42274) | DRSC15804 | 1.20e6 | 1.27e6 | 8.24e5 | 9.21e5 | inactive |
| CG8507 (GeneID 41205) | DRSC16435 | 1.48e6 | 1.60e6 | 1.36e6 | 1.46e6 | inactive |
| dco (GeneID 43673) | DRSC16929 | 4.61e5 | – | 7.36e5 | – | inactive |
| CG31638 (GeneID 33910) | DRSC02269 | 1.55e6 | 1.41e6 | 1.17e6 | 1.32e6 | inactive |
| CG31638 (GeneID 33910) | DRSC03259 | 1.48e6 | 1.36e6 | 1.18e6 | 1.34e6 | inactive |
| Rad9 (GeneID 40054) | DRSC11263 | 1.58e6 | 1.61e6 | 1.32e6 | 1.38e6 | inactive |
| mod (GeneID 43764) | DRSC16999 | 5.42e5 | – | 8.41e5 | – | inactive |
| CG9986 (GeneID 43386) | DRSC16586 | 5.70e5 | – | 8.07e5 | – | inactive |
| CG10465 (GeneID 35488) | DRSC04848 | 1.54e6 | 1.56e6 | 1.19e6 | 1.29e6 | inactive |
| Pus7 (GeneID 38969) | DRSC10703 | 1.29e6 | 1.33e6 | 1.12e6 | 1.22e6 | inactive |
| t (GeneID 31863) | DRSC17815 | 1.60e6 | 1.51e6 | 1.02e6 | 1.18e6 | inactive |
| CG40245 (retired record) (GeneID 3354884) | DRSC21012 | 1.22e6 | 1.56e6 | 1.17e6 | 1.19e6 | inactive |
| Gart (GeneID 33986) | DRSC03481 | 1.47e6 | 1.33e6 | 1.16e6 | 1.28e6 | inactive |
| ltl (GeneID 38845) | DRSC10206 | 1.42e6 | 1.36e6 | 1.09e6 | 1.20e6 | inactive |
| ltl (GeneID 38845) | DRSC10870 | 1.38e6 | 1.35e6 | 1.14e6 | 1.21e6 | inactive |
| CG3726 (GeneID 31525) | DRSC18320 | 1.69e6 | 1.76e6 | 8.96e5 | 1.02e6 | inactive |
| CG32148 (GeneID 251924) | DRSC09338 | 1.43e6 | 1.54e6 | 1.10e6 | 1.24e6 | inactive |
| CG2839 (GeneID 33244) | DRSC00544 | 1.54e6 | 1.57e6 | 1.02e6 | 1.19e6 | inactive |
| ITP (GeneID 37921) | DRSC04222 | 1.79e6 | 1.91e6 | 1.28e6 | 1.39e6 | inactive |
| RpL28 + snoRNA:Or-CD12 | DRSC08293 | 1.15e6 | 1.08e6 | 6.19e5 | 7.59e5 | active |
| mRpS11 (GeneID 42061) | DRSC15732 | 1.25e6 | 1.28e6 | 1.04e6 | 1.16e6 | inactive |
| ox (GeneID 45401) | DRSC07520 | 1.64e6 | 1.58e6 | 1.17e6 | 1.30e6 | inactive |
| Spase22-23 (GeneID 42885) | DRSC15857 | 1.68e6 | 1.59e6 | 1.05e6 | 1.14e6 | inactive |
| CG11779 (GeneID 42298) | DRSC14384 | 1.36e6 | 1.48e6 | 1.14e6 | 1.17e6 | inactive |
| CG6685 (GeneID 39172) | DRSC10695 | 1.24e6 | 1.22e6 | 1.33e6 | 1.42e6 | inactive |
| CG9286 (GeneID 41690) | DRSC16467 | 1.56e6 | 1.63e6 | 1.07e6 | 1.17e6 | inactive |
| HemK2 + Snapin | DRSC00736 | 1.27e6 | 1.32e6 | 6.13e5 | 5.57e5 | inactive |
| HemK2 + Snapin | DRSC00737 | 1.61e6 | 1.63e6 | 1.18e6 | 1.34e6 | inactive |
| Ost48 (GeneID 31849) | DRSC18693 | 6.10e5 | – | 9.21e5 | – | inactive |
| BuGZ (GeneID 35004) | DRSC02642 | 1.19e6 | 1.26e6 | 1.16e6 | 1.26e6 | inactive |
| BuGZ (GeneID 35004) | DRSC02643 | 1.56e6 | 1.55e6 | 1.26e6 | 1.41e6 | inactive |
| CG11384 (GeneID 31061) | DRSC18628 | 1.70e6 | 1.79e6 | 1.12e6 | 1.27e6 | inactive |
| scrib (GeneID 44448) | DRSC13774 | 1.15e6 | 1.46e6 | 1.09e6 | 1.14e6 | inactive |
| scrib (GeneID 44448) | DRSC15809 | 5.73e5 | – | 7.22e5 | – | inactive |
| scrib (GeneID 44448) | DRSC17051 | 1.55e6 | 1.57e6 | 1.03e6 | 1.18e6 | inactive |
| tej (GeneID 36590) | DRSC07219 | 1.52e6 | 1.44e6 | 1.15e6 | 1.32e6 | inactive |
| Dbct (GeneID 32441) | DRSC19951 | 5.70e5 | – | 9.46e5 | – | inactive |
| CG6142 (GeneID 43178) | DRSC15976 | 1.54e6 | 1.75e6 | 1.03e6 | 1.11e6 | inactive |
| Nle (GeneID 33234) | DRSC00763 | 1.56e6 | 1.66e6 | 9.36e5 | 1.06e6 | inactive |
| CG15482 (GeneID 34717) | DRSC02492 | 1.70e6 | 1.75e6 | 1.29e6 | 1.45e6 | inactive |
| BCL7-like (GeneID 31890) | DRSC17729 | 5.77e5 | – | 8.52e5 | – | inactive |
| AnxB9 (GeneID 42492) | DRSC14111 | 1.59e6 | 1.63e6 | 1.27e6 | 1.34e6 | inactive |
| P32 (GeneID 37006) | DRSC06988 | 1.32e6 | 1.39e6 | 1.08e6 | 1.18e6 | inactive |
| Kif3C (GeneID 43820) | DRSC17209 | 1.63e6 | 1.62e6 | 1.09e6 | 1.22e6 | inactive |
| Kif3C (GeneID 43820) | DRSC17210 | 1.78e6 | 1.75e6 | 1.15e6 | 1.23e6 | inactive |
| Jhbp15 (GeneID 42489) | DRSC15217 | 1.28e6 | 1.29e6 | 1.15e6 | 1.23e6 | inactive |
| Marc (GeneID 36014) | DRSC06614 | 1.75e6 | 1.74e6 | 1.38e6 | 1.57e6 | inactive |
| CG31121 (GeneID 42975) | DRSC15361 | 1.55e6 | 1.50e6 | 9.80e5 | 1.06e6 | inactive |
| CG31121 (GeneID 42975) | DRSC15363 | 1.53e6 | 1.47e6 | 9.83e5 | 1.05e6 | inactive |
| CG6749 (GeneID 39144) | DRSC10704 | 1.30e6 | 1.36e6 | 1.37e6 | 1.52e6 | inactive |
| msl-3 (GeneID 38779) | DRSC11371 | 1.62e6 | 1.66e6 | 1.24e6 | 1.26e6 | inactive |
| Bsg (GeneID 318841) | DRSC01010 | 1.37e6 | 1.39e6 | 8.75e5 | 1.01e6 | inactive |
| Bsg (GeneID 318841) | DRSC01011 | 1.59e6 | 1.67e6 | 9.49e5 | 1.06e6 | inactive |
| lncRNA:bxd (GeneID 3772220) | DRSC13176 | 1.41e6 | 1.63e6 | 1.05e6 | 1.20e6 | inactive |
| CG13204 (GeneID 36227) | DRSC06328 | 1.47e6 | 1.55e6 | 1.15e6 | 1.29e6 | inactive |
| Spf45 (GeneID 3355114) | DRSC03826 | 1.48e6 | 1.55e6 | 1.32e6 | 3.67e5 | inactive |
| Nprl2 (GeneID 32677) | DRSC20153 | 1.45e6 | 1.50e6 | 1.05e6 | 1.10e6 | inactive |
| CG30411 (GeneID 246600) | DRSC04004 | 1.47e6 | 1.55e6 | 9.87e5 | 1.06e6 | inactive |
| CG13407 (GeneID 42599) | DRSC14583 | 1.37e6 | 1.52e6 | 9.89e5 | 1.02e6 | inactive |

Reprinted from above, 10 entries:
| Gene | dsRNA | Kc cell number, rep 1 | Kc cell number, rep 2 | S2R+ cell number, rep 1 | S2R+ cell number, rep 2 | Outcome |
| --- | --- | --- | --- | --- | --- | --- |
| AnxB9 (GeneID 42492) | DRSC14111 | 1.59e6 | 1.63e6 | 1.27e6 | 1.34e6 | inactive |
| P32 (GeneID 37006) | DRSC06988 | 1.32e6 | 1.39e6 | 1.08e6 | 1.18e6 | inactive |
| Kif3C (GeneID 43820) | DRSC17209 | 1.63e6 | 1.62e6 | 1.09e6 | 1.22e6 | inactive |
| Kif3C (GeneID 43820) | DRSC17210 | 1.78e6 | 1.75e6 | 1.15e6 | 1.23e6 | inactive |
| Jhbp15 (GeneID 42489) | DRSC15217 | 1.28e6 | 1.29e6 | 1.15e6 | 1.23e6 | inactive |
| Marc (GeneID 36014) | DRSC06614 | 1.75e6 | 1.74e6 | 1.38e6 | 1.57e6 | inactive |
| CG31121 (GeneID 42975) | DRSC15361 | 1.55e6 | 1.50e6 | 9.80e5 | 1.06e6 | inactive |
| CG31121 (GeneID 42975) | DRSC15363 | 1.53e6 | 1.47e6 | 9.83e5 | 1.05e6 | inactive |
| CG6749 (GeneID 39144) | DRSC10704 | 1.30e6 | 1.36e6 | 1.37e6 | 1.52e6 | inactive |
| msl-3 (GeneID 38779) | DRSC11371 | 1.62e6 | 1.66e6 | 1.24e6 | 1.26e6 | inactive |
